Reference: publication PMC3542282, “P. falciparum cpn20 Is a Bona Fide Co-Chaperonin That Can Replace GroES in E. coli” (PLoS ONE, 2013)
Results are given in words; binding and its absence hold for the method and conditions named. Some results given as binding are weak or reduced against the parent protein; the word gives no strength.

Biological target: T1, A. thaliana cpn20 (A. thaliana) (UniProt O65282)
T1 sequence: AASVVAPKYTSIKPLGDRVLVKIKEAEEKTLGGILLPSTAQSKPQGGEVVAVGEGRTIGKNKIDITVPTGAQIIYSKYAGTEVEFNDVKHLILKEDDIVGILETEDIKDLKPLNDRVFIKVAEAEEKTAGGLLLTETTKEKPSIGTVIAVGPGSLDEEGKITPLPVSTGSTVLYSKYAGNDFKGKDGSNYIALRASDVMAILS
Experiment: pull-down; 30 µM his-tagged Cpn20 with 20 µM At-Cpn10, 1 hour, 50 mM Na-HEPES pH 7.7, 150 mM NaCl, 10 mM MgCl2, 100 mM KCl, 25 mM imidazole; Ni-NTA beads, room temperature, 5 washes; SDS-PAGE, Coomassie; both purified

- binding: binds
B1: A. thaliana cpn10 (protein, UniProt O80504 40-139)
chain: IKAISTKWEPTKVVPQADRVLVRLEDLPIKSSGGVLLPKAAVKFERYLTGEIISVGSEVGQQVGPGKRVLFSDVSAYEVDLGTDARHCFCKESDLLALVE
